Assay: general procedure: solution-phase peptide synthesis; HATU/DIEA; EDCI/HOBt or EDCI/HOPO with 2,6-lutidine
Details: late stage modification step, 210 nm

## (S)—N-((3R,4S,5S)-1-((S)-2-((1R,2R)-3-(((S)-1-(4-aminophenyl)-3-cyanopropan-2-yl)amino)-1-methoxy-2-methyl-3-oxopropyl) pyrrolidin-1-yl)-3-methoxy-5-methyl-1-oxoheptan-4-yl)-2-((S)-2-(dimethylamino)-3-methylbutanamido)-N,3-dimethylbutanamide
  final HPLC purity: 99.3%
